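Viability assay of Plasmodium falciparum sporozoites; the read-out is not stated. The concentration is filed as 10 mM, unlikely as a test dose, so the dose is not known. Direction is inferred from retests: higher values go with lower viability. Strong results were mostly tested again. Of about 34,000 compounds tested this way, about 280 (0.84%) reached 50% or more in at least one test.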

The filed quantity is “Percent Effect” (%).
How 0% and 100% were set is not recorded. Most values in the screen are low, and negative values occur.
The compounds are a random part of those screened.
Two or more numbers in one place are separate tests of the same structure; such repeats can differ widely.

{"smiles": "Cc1ccc(C(=O)N(C2CC2)C2CC(=O)NC2=O)cc1F", "stereo": "configuration not stated", "Percent Effect": 5.225}
{"smiles": "Cc1ccc(CN2Cc3nnn(C)c3C(COCc3ccccn3)C2)s1.O=C(O)C(F)(F)F.O=C(O)C(F)(F)F", "stereo": "configuration not stated", "Percent Effect": 7.281}
{"smiles": "O=C(CC1CN(Cc2ccccc2)CCO1)Nc1ccsc1", "stereo": "configuration not stated", "Percent Effect": "-1.51 & -2.709"}
{"smiles": "CCCC(NC(=O)c1cc(C)c(F)cc1F)c1nnn[nH]1", "stereo": "configuration not stated", "Percent Effect": -7.843}
{"smiles": "CC(=O)Nc1ncc(S(=O)(=O)Nc2ccccc2)s1", "Percent Effect": "-19.39 & -12.46"}
{"smiles": "CNS(=O)(=O)c1ccc(C(=O)N2CCCC2c2ccncc2)o1", "stereo": "configuration not stated", "Percent Effect": 4.938}
{"smiles": "Cc1ccc(N2N=C(C(N)=O)S(=O)(=O)c3cccnc32)cc1", "Percent Effect": -13.46}
{"smiles": "Cn1ccnc1CN1CCC2(CC1)CC(Oc1cccnc1)C2.O=C(O)C(F)(F)F.O=C(O)C(F)(F)F", "Percent Effect": -19.59}
{"smiles": "Cc1csc(CNC(=O)NC(C)c2ccc3c(c2)CCC(=O)N3)n1", "stereo": "configuration not stated", "Percent Effect": "27.72 & 9.922 & 17.49"}
{"smiles": "Cc1ccccc1-c1cncc(C2CCN(C3CCOCC3)CC2)n1", "Percent Effect": -3.729}
{"smiles": "COCC1c2nnn(CC3CC3)c2CCN1C(=O)Cc1cccs1", "stereo": "configuration not stated", "Percent Effect": -5.075}
{"smiles": "Cc1csc(C2CCCN(C(=O)c3ccc(=O)n(C)n3)C2)n1", "stereo": "configuration not stated", "Percent Effect": 6.228}
{"smiles": "CCc1nc(CNCC2CCCN2c2cccnn2)cs1", "stereo": "configuration not stated", "Percent Effect": 15.13}
{"smiles": "CSc1ncc(C(=O)N(C)C(C)Cc2ccccn2)cn1", "stereo": "configuration not stated", "Percent Effect": -0.1292}

2 of the entries, repeated:

SMILES	Percent Effect
O=C(CC1CN(Cc2ccccc2)CCO1)Nc1ccsc1 (configuration not stated)	-1.51% & -2.709%
Cc1csc(C2CCCN(C(=O)c3ccc(=O)n(C)n3)C2)n1 (configuration not stated)	6.228%

Data taken from ChEMBL document CHEMBL3988442, “University of Dundee, Small-Polar-MMV Screening Library” (2021).